Experimental data as given in the supplement of paper PMC6078165.

System: HCC1143
Experiment: relative JC-1 red fluorescence (viability) vs pre-drug, coculture with fibroblast (fraction); higher = more viable cancer cells
Procedure: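 JC-1 labelled TNBC cells cocultured 1:1 (1,500 cells each) with CellTrace Violet stained primary or stromal fibroblasts in 384-well plates in FluoroBrite medium, treated with one of 42 anticancer drugs at 0.1, 1, 10 or 100 uM. JC-1 red fluorescence (mitochondrial integrity in cancer cells only) was read by plate reader every 8 h for 72 h. Values are normalised to each well's pre-drug value. The stock of one drug was tenfold lower, so its dose labels may be too high.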

CCN(CC)CCNC(=O)c1c(C)[nH]c(/C=C2\C(=O)Nc3ccc(F)cc32)c1C [Sunitinib]
relative JC-1 red fluorescence
Conditions	8 h	16 h	24 h	32 h	40 h	48 h	56 h	64 h	72 h
0.1 µM, coculture fibroblast: C12385	0.813	0.757	0.703	0.651	0.586	0.553	0.531	0.505	0.499
0.1 µM, coculture fibroblast: H6013	0.738	0.675	0.647	0.636	0.588	0.592	0.5645	0.551	0.511
0.1 µM, coculture fibroblast: H6019	0.826	0.753	0.692	0.639	0.593	0.574	0.523	0.477	0.44
0.1 µM, coculture fibroblast: H6076	0.799	0.7851	0.74117	0.694	0.6492	0.634	0.606	0.589	0.593
0.1 µM, coculture fibroblast: H6231	0.8047	0.79	0.735	0.66	0.636	0.603	0.571	0.545	0.535
0.1 µM, coculture fibroblast: HADF	0.729	0.692	0.662	0.659	0.58	0.567	0.54	0.521	0.489
0.1 µM, coculture fibroblast: HCFa	0.798	0.732	0.688	0.662	0.584	0.564	0.523	0.487	0.461
0.1 µM, coculture fibroblast: HCPF	0.814	0.786	0.767	0.732	0.708	0.7	0.688	0.661	0.665
0.1 µM, coculture fibroblast: HHSteC	0.847	0.81	0.79	0.761	0.708	0.683	0.657	0.638	0.598
0.1 µM, coculture fibroblast: HMF	0.787	0.817	0.754	0.699	0.674	0.649	0.619	0.586	0.575
0.1 µM, coculture fibroblast: HPFa	0.8457	0.7511	0.7197	0.6266	0.5827	0.558	0.5	0.46	0.429
0.1 µM, coculture fibroblast: HUF	0.839	0.762	0.705	0.629	0.575	0.5545	0.504	0.4758	0.449
0.1 µM, coculture fibroblast: Hs5	0.848	0.873	0.828	0.79	0.748	0.72	0.688	0.663	0.661
0.1 µM, coculture fibroblast: Hs27A	0.713	0.707	0.683	0.702	0.603	0.608	0.577	0.559	0.523
0.1 µM, coculture fibroblast: Hs343T	0.832	0.825	0.819	0.801	0.771	0.766	0.749	0.752	0.766
0.1 µM, coculture fibroblast: WS1	0.8144	0.742	0.685	0.623	0.565	0.54	0.493	0.47	0.454
1 µM, coculture fibroblast: C12385	0.813	0.757	0.7123	0.649	0.5902	0.5531	0.523	0.494	0.483
1 µM, coculture fibroblast: H6013	0.77	0.73	0.704	0.697	0.652	0.645	0.625	0.614	0.58
1 µM, coculture fibroblast: H6019	0.818	0.757	0.726	0.669	0.631	0.614	0.563	0.514	0.475
1 µM, coculture fibroblast: H6076	0.8176	0.7826	0.759	0.7274	0.676	0.66	0.632	0.619	0.618
1 µM, coculture fibroblast: H6231	0.841	0.858	0.804	0.713	0.718	0.696	0.657	0.623	0.603
1 µM, coculture fibroblast: HADF	0.7477	0.705	0.67	0.677	0.595	0.577	0.556	0.529	0.513
1 µM, coculture fibroblast: HCFa	0.795	0.745	0.71	0.695	0.621	0.602	0.563	0.534	0.512
1 µM, coculture fibroblast: HCPF	0.802	0.813	0.771	0.7	0.714	0.686	0.657	0.629	0.622
1 µM, coculture fibroblast: HHSteC	0.8117	0.765	0.734	0.697	0.644	0.62	0.591	0.564	0.513
1 µM, coculture fibroblast: HMF	0.8129	0.82	0.762	0.7093	0.664	0.643	0.607	0.588	0.578
1 µM, coculture fibroblast: HPFa	0.8527	0.762	0.735	0.636	0.585	0.557	0.509	0.474	0.443
1 µM, coculture fibroblast: HUF	0.8363	0.7688	0.715	0.641	0.587	0.562	0.516	0.485	0.459
1 µM, coculture fibroblast: Hs5	0.8581	0.8607	0.83	0.789	0.734	0.705	0.666	0.649	0.637
1 µM, coculture fibroblast: Hs27A	0.743	0.673	0.63764	0.65	0.525	0.515	0.476	0.443	0.415
1 µM, coculture fibroblast: Hs343T	0.829	0.829	0.777	0.7098	0.668	0.6394	0.598	0.5818	0.5651
1 µM, coculture fibroblast: WS1	0.796	0.723	0.687	0.62	0.571	0.541	0.496	0.468	0.45
10 µM, coculture fibroblast: C12385	0.832	0.769	0.712	0.6518	0.5715	0.511	0.458	0.392	0.366
10 µM, coculture fibroblast: H6013	0.709	0.625	0.601	0.613	0.528	0.481	0.455	0.431	0.429
10 µM, coculture fibroblast: H6019	0.8555	0.826	0.82	0.787	0.771	0.732	0.69	0.646	0.6
10 µM, coculture fibroblast: H6076	0.7548	0.831	0.815	0.74	0.764	0.741	0.71	0.694	0.675
10 µM, coculture fibroblast: H6231	0.862	0.827	0.846	0.722	0.873	0.849	0.822	0.786	0.715
10 µM, coculture fibroblast: HADF	0.695	0.641	0.604	0.627	0.523	0.469	0.431	0.377	0.39
10 µM, coculture fibroblast: HCFa	0.733	0.635	0.602	0.616	0.524	0.488	0.464	0.433	0.463
10 µM, coculture fibroblast: HCPF	0.791	0.89	0.861	0.644	0.797	0.758	0.712	0.675	0.631
10 µM, coculture fibroblast: HHSteC	0.765	0.706	0.673	0.662	0.579	0.512	0.478	0.431	0.387
10 µM, coculture fibroblast: HMF	0.797	0.89	0.834	0.678	0.78	0.748	0.712	0.641	0.561
10 µM, coculture fibroblast: HPFa	0.8848	0.816	0.798	0.701	0.654	0.6256	0.589	0.546	0.52
10 µM, coculture fibroblast: HUF	0.822	0.688	0.595	0.499	0.43	0.381	0.333	0.285	0.282
10 µM, coculture fibroblast: Hs5	0.794	0.887	0.842	0.773	0.76	0.699	0.646	0.607	0.556
10 µM, coculture fibroblast: Hs27A	0.767	0.694	0.643	0.673	0.558	0.518	0.503	0.484	0.565
10 µM, coculture fibroblast: Hs343T	0.781	0.88	0.829	0.678	0.76	0.725	0.667	0.614	0.572
10 µM, coculture fibroblast: WS1	0.816	0.744	0.703	0.665	0.615	0.561	0.532	0.492	0.458
100 µM, coculture fibroblast: C12385	0.31679	0.244	0.234	0.213	0.189	0.197	0.185	0.159	0.158
100 µM, coculture fibroblast: H6013	0.186	0.16	0.147	0.129	0.109	0.111	0.0908	0.0745	0.0804
100 µM, coculture fibroblast: H6019	0.286	0.24	0.23	0.207	0.196	0.213	0.204	0.186	0.187
100 µM, coculture fibroblast: H6076	0.48	0.358	0.352	0.365	0.308	0.304	0.278	0.268	0.263
100 µM, coculture fibroblast: H6231	0.319	0.225	0.213	0.223	0.192	0.191	0.176	0.168	0.165
100 µM, coculture fibroblast: HADF	0.136	0.0855	0.072	0.0544	0.0388	0.0429	0.0292	0.0363	0.0268
100 µM, coculture fibroblast: HCFa	0.217	0.0955	0.0774	0.0682	0.0577	0.0572	0.0354	0.0245	0.0367
100 µM, coculture fibroblast: HCPF	0.355	0.304	0.292	0.315	0.261	0.257	0.236	0.223	0.219
100 µM, coculture fibroblast: HHSteC	0.217	0.156	0.153	0.139	0.128	0.1302	0.107	0.0999	0.0696
100 µM, coculture fibroblast: HMF	0.239	0.178	0.164	0.178	0.127	0.127	0.109	0.105	0.0993
100 µM, coculture fibroblast: HPFa	0.355	0.228	0.229	0.207	0.191	0.204	0.186	0.179	0.17
100 µM, coculture fibroblast: HUF	0.471	0.336	0.304	0.267	0.229	0.24	0.214	0.199	0.191
100 µM, coculture fibroblast: Hs5	0.344	0.224	0.205	0.22	0.159	0.145	0.123	0.118	0.107
100 µM, coculture fibroblast: Hs27A	0.139	0.0835	0.081	0.0899	0.0666	0.0836	0.0751	0.0725	0.0927
100 µM, coculture fibroblast: Hs343T	0.342	0.281	0.274	0.298	0.26	0.263	0.243	0.251	0.24
100 µM, coculture fibroblast: WS1	0.381	0.336	0.351	0.319	0.303	0.317	0.305	0.293	0.29

The reference is the same well before dosing, and untreated signal decays as well.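 Fibroblast labels name human fibroblasts: mostly primary ones from tissues such as uterus (C12385, HUF), lung (H6013), bone (Hs27A), adrenal (HADF) and skin (WS1), plus mammary HMF and breast cancer-associated Hs343T. The cancer cells are basal-like or mesenchymal-like triple-negative breast cancer lines. The paper calls a changed response a hit when it shifts by more than 3x the replicate standard deviation. The tissue of the other fibroblasts is not given here.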
